In the supplement of paper PMC12542422:
Structures can show the parent of a compound that is named as a salt. ± gives the standard deviation of the averaged measurements. The list shows a part of the results. Values are raw readings; no control value is given beside them.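 Across three biological replicates, HeLa cells were imaged for ribosome assembly using ENP1 staining (export block present or absent) or inducible tagged ribosomal protein reporters. Machine learning classified each cell's signal localization relative to DMSO controls. Hits exceeded the DMSO false-positive mean by five standard deviations and were then visually confirmed.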

Assays:
[1] = tested on: HeLa K (ENP1 immunofluorescence, +LMB); test: fraction of cells with nucleolar or nucleolar/nucleoplasmic ENP1 signal (MainHitrate); higher = more cells with nucleolar/nuclear readout signal (for ENP1 -LMB: less RNAPI inhibition; for +LMB ENP1 and RP reporters: stronger nuclear/nucleolar retention, i.e. ribosome biogenesis defect); details: concentration: 1 µM; treatment time: 6 h; ENP1 +LMB; leptomycin B: 20 nM, last 1.5 h
[2] = tested on: HeLa K (ENP1 immunofluorescence, no LMB); test: as above; details: concentration: 1 µM; treatment time: 6 h; ENP1 -LMB; leptomycin B: none
HeLa RPS2-YFP reporter = test: fraction of reporter-positive cells with nuclear (nucleolar or nucleolar/nucleoplasmic) RPS2-YFP (MainHitrate); higher = more cells with nucleolar/nuclear readout signal (for ENP1 -LMB: less RNAPI inhibition; for +LMB ENP1 and RP reporters: stronger nuclear/nucleolar retention, i.e. ribosome biogenesis defect); details: concentration: 1 µM; treatment time: 6 h
HeLa RPL29-GFP reporter = test: fraction of reporter-positive cells with nuclear (nucleolar or nucleolar/nucleoplasmic) RPL29-GFP (MainHitrate); higher = more cells with nucleolar/nuclear readout signal (for ENP1 -LMB: less RNAPI inhibition; for +LMB ENP1 and RP reporters: stronger nuclear/nucleolar retention, i.e. ribosome biogenesis defect); details: concentration: 1 µM; treatment time: 6 h

Row | Structure (SMILES) | fraction [1] | fraction [2] | fraction of reporter-positive cells with nuclear (HeLa RPS2-YFP reporter) | fraction of reporter-positive cells with nuclear (HeLa RPL29-GFP reporter)
1 | C=CCOc1ccccc1OCC(O)CNC(C)C (stereo not drawn) [Oxprenolol HCl] | 0.207 ± 0.3 | 0.998 ± 0.0035 | 0.173 ± 0.2 | 0.297 ± 0.23
2 | O=P(O)(O)C(O)(Cc1cccnc1)P(=O)(O)O [Risedronic acid (Actonel)] | 0.119 ± 0.16 | 0.9956 ± 0.0077 | 0.104 ± 0.087 | 0.168 ± 0.079
3 | CCCCCCCN(CC)CCCC(O)c1ccc(NS(C)(=O)=O)cc1 (stereo not drawn) [Ibutilide fumarate] | 0.0965 ± 0.13 | 0.993 ± 0.013 | 0.115 ± 0.072 | 0.223 ± 0.076
4 | CN(C)CCC[C@@]1(c2ccc(F)cc2)OCc2cc(C#N)ccc21 [Escitalopram oxalate] | 0.0944 ± 0.13 | 0.957 ± 0.075 | 0.133 ± 0.12 | 0.218 ± 0.043
5 | CC1=C(C(=O)O)N2C(=O)[C@@H](NC(=O)[C@H](N)c3ccccc3)[C@H]2SC1 [Cephalexin (Cefalexin)] | 0.0969 ± 0.087 | 0.998 ± 0.0034 | 0.106 ± 0.075 | 0.228 ± 0.076
6 | CCn1cc(C(=O)O)c(=O)c2cnc(N3CCCC3)nc21 [Piromidic Acid] | 0.0639 ± 0.072 | 0.9962 ± 0.0066 | 0.067 ± 0.049 | 0.299 ± 0.24
7 | Cc1noc(NS(=O)(=O)c2ccc(N)cc2)c1C [Sulfisoxazole] | 0.109 ± 0.14 | 0.992 ± 0.013 | 0.147 ± 0.084 | 0.217 ± 0.1
8 | CO/N=C(\C(=O)N[C@@H]1C(=O)N2C(C(=O)OCOC(=O)C(C)(C)C)=C(/C=C\c3scnc3C)CS[C@H]12)c1csc(N)n1 [Cefditoren pivoxil] | 0.0624 ± 0.053 | 0.9984 ± 0.0027 | 0.131 ± 0.079 | 0.216 ± 0.067
9 | CCN(CC)CC(=O)Nc1c(C)cccc1C [Lidocaine (Alphacaine)] | 0.106 ± 0.077 | 0.9974 ± 0.0044 | 0.109 ± 0.093 | 0.23 ± 0.074
10 | CC(C)(C)NC(=O)[C@H]1CC[C@H]2[C@@H]3CC[C@H]4NC(=O)C=C[C@]4(C)[C@H]3CC[C@]12C [Finasteride] | 0.0925 ± 0.047 | 0.9986 ± 0.0024 | 0.0993 ± 0.072 | 0.22 ± 0.07
11 | Oc1ccc(OC2CCCCO2)cc1 (stereo not drawn) [Deoxyarbutin] | 0.102 ± 0.14 | 0.991 ± 0.015 | 0.136 ± 0.1 | 0.2 ± 0.074
12 | CN1CCN(c2c(F)cc3c(=O)c(C(=O)O)cn(CCF)c3c2F)CC1 [Fleroxacin (Quinodis)] | 0.0994 ± 0.15 | 0.993 ± 0.012 | 0.0802 ± 0.061 | 0.226 ± 0.044
13 | O=C(O)CCCC[C@@H]1SC[C@@H]2NC(=O)N[C@@H]21 [Biotin (Vitamin B7)] | 0.0727 ± 0.098 | 0.978 ± 0.039 | 0.096 ± 0.078 | 0.203 ± 0.053
14 | CC(=O)SCC(Cc1ccccc1)C(=O)NCC(=O)OCc1ccccc1 (stereo not drawn) [Racecadotril (Acetorphan)] | 0.0555 ± 0.05 | 0.994 ± 0.011 | 0.129 ± 0.089 | 0.224 ± 0.077
15 | O=C(O)c1cccnc1 [Niacin (Nicotinic acid)] | 0.0871 ± 0.11 | 0.9984 ± 0.0028 | 0.118 ± 0.086 | 0.216 ± 0.059
16 | Cc1ccccc1N1C(=O)c2cc(S(N)(=O)=O)c(Cl)cc2NC1C (stereo not drawn) [Metolazone (Zaroxolyn)] | 0.0729 ± 0.061 | 0.9991 ± 0.0015 | 0.0952 ± 0.068 | 0.217 ± 0.057
17 | CC(=O)OCC(=O)NCCCOc1cccc(CN2CCCCC2)c1 [Roxatidine acetate HCl] | 0.115 ± 0.17 | 0.993 ± 0.013 | 0.106 ± 0.075 | 0.207 ± 0.054
18 | CC(/C=C1\SC(=S)N(CC(=O)O)C1=O)=C\c1ccccc1 [Epalrestat] | 0.134 ± 0.2 | 0.985 ± 0.025 | 0.0868 ± 0.078 | 0.222 ± 0.062
19 | CO[C@H]1/C=C/O[C@@]2(C)Oc3c(C)c(O)c4c(O)c(c(/C=N/N5CCN(C6CCCC6)CC5)c(O)c4c3C2=O)NC(=O)/C(C)=C\C=C\[C@H](C)[C@H](O)[C@@H](C)[C@@H](O)[C@@H](C)[C@H](OC(C)=O)[C@@H]1C [Rifapentine (Priftin)] | 0.108 ± 0.13 | 0.9991 ± 0.0015 | 0.108 ± 0.073 | 0.211 ± 0.052
20 | O=C1CN2Cc3c(ccc(Cl)c3Cl)N=C2N1 [Anagrelide HCl] | 0.0693 ± 0.099 | 0.975 ± 0.043 | 0.17 ± 0.13 | 0.214 ± 0.08
21 | O=C1c2c(O)ccc(O)c2C(=O)c2c(NCCNCCO)ccc(NCCNCCO)c21 [Mitoxantrone Hydrochloride] | 0.0522 ± 0.082 | 0.697 ± 0.52 | 0.0385 ± 0.012 | 0.54 ± 0.28
22 | CCn1cc(C(=O)O)c(=O)c2cc(F)c(N3CCNCC3)nc21 [Enoxacin (Penetrex)] | 0.122 ± 0.15 | 0.9986 ± 0.0024 | 0.136 ± 0.11 | 0.204 ± 0.078
23 | COc1ccc(C[C@@H]2c3cc(OC)c(OC)cc3CC[N@+]2(C)CCC(=O)OCCCCCOC(=O)CC[N@@+]2(C)CCc3cc(OC)c(OC)cc3[C@H]2Cc2ccc(OC)c(OC)c2)cc1OC [Cisatracurium besylate (Nimbex)] | 0.0794 ± 0.11 | 0.991 ± 0.015 | 0.143 ± 0.099 | 0.233 ± 0.062
24 | Clc1ccccc1C(c1ccccc1)(c1ccccc1)n1ccnc1 [Clotrimazole (Canesten)] | 0.409 ± 0.51 | 0.9985 ± 0.0025 | 0.108 ± 0.052 | 0.215 ± 0.063
25 | Nc1nc(O)c2ncn(CCC(CO)CO)c2n1 [Penciclovir] | 0.0778 ± 0.085 | 0.973 ± 0.046 | 0.118 ± 0.096 | 0.214 ± 0.051
26 | c1ccc2c(CC3=NCCN3)cccc2c1 [Naphazoline hydrochloride (Naphcon)] | 0.118 ± 0.17 | 0.989 ± 0.019 | 0.109 ± 0.07 | 0.234 ± 0.08
27 | O=C(O)CCNC(=O)c1ccccc1 [Betamipron] | 0.0865 ± 0.12 | 0.986 ± 0.024 | 0.119 ± 0.1 | 0.216 ± 0.046

Two of the compounds above, with each value named.
CCN(CC)CC(=O)Nc1c(C)cccc1C [Lidocaine (Alphacaine)]
  fraction [1]: 0.106 ± 0.077
  fraction [2]: 0.9974 ± 0.0044
  fraction of reporter-positive cells with nuclear (HeLa RPS2-YFP reporter): 0.109 ± 0.093
  fraction of reporter-positive cells with nuclear (HeLa RPL29-GFP reporter): 0.23 ± 0.074
CC(C)(C)NC(=O)[C@H]1CC[C@H]2[C@@H]3CC[C@H]4NC(=O)C=C[C@]4(C)[C@H]3CC[C@]12C [Finasteride]
  fraction [1]: 0.0925 ± 0.047
  fraction [2]: 0.9986 ± 0.0024
  fraction of reporter-positive cells with nuclear (HeLa RPS2-YFP reporter): 0.0993 ± 0.072
  fraction of reporter-positive cells with nuclear (HeLa RPL29-GFP reporter): 0.22 ± 0.07
